The record followed here is article doi:10.1101/145664.

No constants are given. Whether binding was seen depends on the method and setting. In cells and extracts the contact can be indirect. Binding calls can cover weak binding; strength is not graded here.

Sequences and labels used below:
B1: Abp1 (protein, UniProt P15891 1-592)
chain: MALEPIDYTTHSREIDAEYLKIVRGSDPDTTWLIISPNAKKEYEPESTGSSFHDFLQLFDETKVQYGLARVSPPGSDVEKIIIIGWCPDSAPLKTRASFAANFAAVANNLFKGYHVQVTARDEDDLDENELLMKISNAAGARYSIQTSSKQQGKASTPPVKKSFTPSKSPAPVSKKEPVKTPSPAPAAKISSRVNDNNDDDDWNEPELKERDFDQAPLKPNQSSYKPIGKIDLQKVIAEEKAKEDPRLVQKPTAAGSKIDPSSDIANLKNESKLKRDSEFNSFLGTTKPPSMTESSLKNDDDKVIKGFRNEKSPAQLWAERKAKQNSGNAETKAEAPKPEVPEDEPEGEPDVKDLKSKFEGLAASEKEEEEMENKFAPPPKKSEPTIISPKPFSKPQEPVKAEEAEQPKTDYKKIGNPLPGMHIEADNEEEPEENDDDWDDDEDEAAQPPLPSRNVASGAPVQKEEPEQEEIAPSLPSRNSIPAPKQEEAPEQAPEEEIEEEAEEAAPQLPSRSSAAPPPPPRRATPEKKPKENPWATAEYDYDAAEDNELTFVENDKIINIEFVDDDWWLGELEKDGSKGLFPSNYVSLGN
B2: Yap1802 (protein, UniProt P53309 1-568)
chain: MSSLYTKLVKGATKIKMAPPKQKYVDPILSGTSSARGLQEITHALDIRLSDTAWTIVYKALIVLHLMIQQGEKDVTLRHYSHNLDVFQLRKISHTTKWSSNDMRALQRYDEYLKTRCEEYGRLGMDHLRDNYSSLKLGSKNQLSMDEELDHVESLEIQINALIRNKYSVSDLENHLLLYAFQLLVQDLLGLYNALNEGVITLLESFFELSIEHAKRTLDLYKDFVDMTEYVVRYLKIGKAVGLKIPVIKHITTKLINSLEEHLREETKRQRGEPSEPQQDRKPSTAISSTSSHNNNSNDKNKSIAQKKLEQIREQKRLLEQQLQNQQLLISPTVPQDAYNPFGSQQQDLNNDTFSFEPTQPQMTAQVPQPTANPFLIPQQQQQALQLTSASTMPQPSEIQITPNLNNQQTGMYASNLQYTPNFTGSGFGGYTTTENNAIMTGTLDPTKTGSNNPFSLENIAREQQQQNFQNSPNPFTLQQAQTTPILAHSQTGNPFQAQNVVTSPMGTYMTNPVAGQLQYASTGAQQQPQMMQGQQTGYVMVPTAFVPINQQQQQQQHQQENPNLIDI
B3: Ede1 (protein, UniProt P34216 1-1381)
chain: MASITFRTPLSSQEQAFYNQKFHQLDTEDLGVVTGEAVRPLFASSGLPGQLLSQVWATVDIDNKGFLNLNEFSAALRMIAQLQNAPNQPISAALYESTPTQLASFSINQNPAPMQSGSATGNTNNTDIPALSSNDIAKFSQLFDRTAKGAQTVAGDKAKDIFLKARLPNQTLGEIWALCDRDASGVLDKSEFIMAMYLIQLCMSHHPSMNTPPAVLPTQLWDSIRLEPVVVNQPNRTTPLSANSTGVSSLTRHSTISRLSTGAFSNAASDWSLSFEKKQQFDAIFDSLDKQHAGSLSSAVLVPFFLSSRLNQETLATIWDLADIHNNAEFTKLEFAIAMFLIQKKNAGVELPDVIPNELLQSPALGLYPPNPLPQQQSAPQIAIPSRASKPSLQDMPHQVSAPAVNTQPTVPQVLPQNSNNGSLNDLLALNPSFSSPSPTKAQTVVQNNTNNSFSYDNNNGQATLQQQQPQQPPPLTHSSSGLKKFTPTSNFGQSIIKEEPEEQEQLRESSDTFSAQPPPVPKHASSPVKRTASTTLPQVPNFSVFSMPAGAATSAATGAAVGAAVGAAALGASAFSRSSNNAFKNQDLFADGEASAQLSNATTEMANLSNQVNSLSKQASITNDKKSRATQELKRVTEMKNSIQIKLNNLRSTHDQNVKQTEQLEAQVLQVNKENETLAQQLAVSEANYHAAESKLNELTTDLQESQTKNAELKEQITNLNSMTASLQSQLNEKQQQVKQERSMVDVNSKQLELNQVTVANLQKEIDGLGEKISVYLTKQKELNDYQKTVEEQHAQLQAKYQDLSNKDTDLTDREKQLEERNRQIEEQENLYHQHVSKLQEMFDDLSQRKASFEKADQELKERNIEYANNVRELSERQMNLAMGQLPEDAKDIIAKSASNTDTTTKEATSRGNVHEDTVSKFVETTVENSNLNVNRVKDDEEKTERTESDVFDRDVPTLGSQSDSENANTNNGTQSGNETANPNLTETLSDRFDGDLNEYGIPRSQSLTSSVANNAPQSVRDDVELPETLEERDTINNTANRDNTGNLSHIPGEWEATPATASTDVLSNETTEVIEDGSTTKRANSNEDGESVSSIQESPKISAQPKAKTINEEFPPIQELHIDESDSSSSDDDEFEDTREIPSATVKTLQTPYNAQPTSSLEIHTEQVIKYPAPGTSPSHNEGNSKKASTNSILPVKDEFDDEFAGLEQAAVEEDNGADSESEFENVANAGSMEQFETIDHKDLDDELQMNAFTGTLTSSSNPTIPKPQVQQQSTSDPAQVSNDEWDEIFAGFGNSKAEPTKVATPSIPQQPIPLKNDPIVDASLSKGPIVNRGVATTPKSLAVEELSGMGFTEEEAHNALEKCNWDLEAATNFLLDSA
B4: Ysc84 (protein, UniProt P32793 1-468)
chain: MGINNPIPRSLKSETKKAAKVLRSFVKPNQVFGADQVIPPYVLKRAKGLAIITVLKAGFLFSGRAGSGVIVARLKDGTWSAPSAIAMAGAGAGGMVGVELTDFVFILNSEEAVRSFSEFGTITLGGNVSVSAGPLGRSAEAAASASTGGVSAVFAYSKSKGLFAGVSVEGSAILERREANRKFYGDNCTSKMILSGRVKVPPAADPLLRILESRAFNFTRHDHDDNASGDDFYDDGQYSDNTSHYYDDIPDSFDSTDESSTRPNTRSSRRRGMSLGSRSRYDDDYDDDGYGRGRGYGDFDSEDEDYDYGRSPNRNSSRNRGPQIDRGTKPRANTRWEDDLYDRDTEYSRPNHSGRDYDNTRGNRRGYGRERGYSLGHGPTHPSNMSNVDDLSHKMSKTGLGNESTATNSATPTAVALYNFAGEQPGDLAFKKGDVITILKKSDSQNDWWTGRTNGKEGIFPANYVRVS
B5: Sla1 (protein, UniProt P32790 1-1244)
chain: MTVFLGIYRAVYAYEPQTPEELAIQEDDLLYLLQKSDIDDWWTVKKRVIGSDSEEPVGLVPSTYIEEAPVLKKVRAIYDYEQVQNADEELTFHENDVFDVFDDKDADWLLVKSTVSNEFGFIPGNYVEPENGSTSKQEQAPAAAEAPAATPAAAPASAAVLPTNFLPPPQHNDRARMMQSKEDQAPDEDEEGPPPAMPARPTATTETTDATAAAVRSRTRLSYSDNDNDDEEDDYYYNSNSNNVGNHEYNTEYHSWNVTEIEGRKKKKAKLSIGNNKINFIPQKGTPHEWSIDKLVSYDNEKKHMFLEFVDPYRSLELHTGNTTTCEEIMNIIGEYKGASRDPGLREVEMASKSKKRGIVQYDFMAESQDELTIKSGDKVYILDDKKSKDWWMCQLVDSGKSGLVPAQFIEPVRDKKHTESTASGIIKSIKKNFTKSPSRSRSRSRSKSNANASWKDDELQNDVVGSAAGKRSRKSSLSSHKKNSSATKDFPNPKKSRLWVDRSGTFKVDAEFIGCAKGKIHLHKANGVKIAVAADKLSNEDLAYVEKITGFSLEKFKANDGSSSRGTDSRDSERERRRRLKEQEEKERDRRLKERELYELKKARELLDEERSRLQEKELPPIKPPRPTSTTSVPNTTSVPPAESSNNNNSSNKYDWFEFFLNCGVDVSNCQRYTINFDREQLTEDMMPDINNSMLRTLGLREGDIVRVMKHLDKKFGRENIASIPTNATGNMFSQPDGSLNVATSPETSLPQQLLPQTTSPAQTAPSTSAETDDAWTVKPASKSESNLLSKKSEFTGSMQDLLDLQPLEPKKAAASTPEPNLKDLEPVKTGGTTVPAAPVSSAPVSSAPAPLDPFKTGGNNILPLSTGFVMMPMITGGDMLPMQRTGGFVVPQTTFGMQSQVTGGILPVQKTGNGLIPISNTGGAMMPQTTFGAAATVLPLQKTGGGLIPIATTGGAQFPQTSFNVQGQQQLPTGSILPVQKTANGLISANTGVSMPTVQRTGGTMIPQTSFGVSQQLTGGAMMTQPQNTGSAMMPQTSFNAVPQITGGAMMPQTSFNALPQVTGGAMMPLQRTGGALNTFNTGGAMIPQTSFSSQAQNTGGFRPQSQFGLTLQKTGGIAPLNQNQFTGGAMNTLSTGGVLQQQQPQTMNTFNTGGVMQELQMMTTFNTGGAMQQPQMMNTFNTDGIMQQPQMMNTFNTGGAMQQPQQQALQNQPTGFGFGNGPQQSRQANIFNATASNPFGF
B6: End3 (protein, UniProt P39013 1-349)
chain: MPKLEQFEIKKYWQIFSGLKPIENKVNHDQVLPILYNSKLDSSVLNKIWFLADIDDDDNLDFEEFVICMRLIFDMVNKNISSVPDELPDWLIPGSKVNLIKERKKRKQIENADLPPKKEIKVDWYMSPDDLNQYEKIYNSCAKLTDGTITFNELSTKLSTKFFNISKTDLNKVWSLINPQNLPSIDRDPTFYFIHCLRQRNDLGAEIPASLPNSLAEVCNKKQLSYDLRSSQPPTKRKEEANEVDNLRDNGQNSSSDSSGSNVLSNEDSIKQKYASLTDDQVANMREQLEGLLNYKKSEKTQGGSKLSKRINIRSITDDLDNIEQQVEVLENYLNNKRHELQALQAEIN
B7: Lsb3 (protein, UniProt P43603 1-459)
chain: MGINNPIPRSLKSETKKAAKILASFVKPNQVFGADQVIPPDVLKRAKGLAIITILKAGFLFSGRAGSGVIVARLKDGTWSAPSAIAMAGAGAGGMVGIELTDFVFILNTQDAVKSFSEFGTITLGGNVSVSAGPLGRSAEAAASASAGGVAAVFAYSKSKGLFAGVSVEGSAIIERREANRKFYGDNCTAKMILSGRIRPPPAVDPLFRVLESRAFNYRPSNGGRGSFDDDEDDYYDDDDYYNDIPSSFSSTDASSTRPNTRSTRRRAQSGSRYTFDDDDDDDDYGTGYSRNSRLAPTNSGGSGGKLDDPSGASSYYASHRRSGTAQSRARSSRNRWADDEYDDYDDDYESGYRRGNGRDRTKDREVDDLSNRFSKSRISSASTPQTSQGRFTAPTSPSTSSPKAVALYSFAGEESGDLPFRKGDVITILKKSDSQNDWWTGRVNGREGIFPANYVELV
B8: Sla2 (protein, UniProt P33338 1-968)
chain: MSRIDSDLQKALKKACSVEETAPKRKHVRACIVYTWDHQSSKAVFTTLKTLPLANDEVQLFKMLIVLHKIIQEGHPSALAEAIRDRDWIRSLGRVHSGGSSYSKLIREYVRYLVLKLDFHAHHRGFNNGTFEYEEYVSLVSVSDPDEGYETILDLMSLQDSLDEFSQIIFASIQSERRNTECKISALIPLIAESYGIYKFITSMLRAMHRQLNDAEGDAALQPLKERYELQHARLFEFYADCSSVKYLTTLVTIPKLPVDAPDVFLINDVDESKEIKFKKREPSVTPARTPARTPTPTPPVVAEPAISPRPVSQRTTSTPTGYLQTMPTGATTGMMIPTATGAANAIFPQATAQMQPDFWANQQAQFANEQNRLEQERVQQLQQQQAQQELFQQQLQKAQQDMMNMQLQQQNQHQNDLIALTNQYEKDQALLQQYDQRVQQLESEITTMDSTASKQLANKDEQLTALQDQLDVWERKYESLAKLYSQLRQEHLNLLPRFKKLQLKVNSAQESIQKKEQLEHKLKQKDLQMAELVKDRDRARLELERSINNAEADSAAATAAAETMTQDKMNPILDAILESGINTIQESVYNLDSPLSWSGPLTPPTFLLSLLESTSENATEFATSFNNLIVDGLAHGDQTEVIHCVSDFSTSMATLVTNSKAYAVTTLPQEQSDQILTLVKRCAREAQYFFEDLMSENLNQVGDEEKTDIVINANVDMQEKLQELSLAIEPLLNIQSVKSNKETNPHSELVATADKIVKSSEHLRVDVPKPLLSLALMIIDAVVALVKAAIQCQNEIATTTSIPLNQFYLKNSRWTEGLISAAKAVAGATNVLITTASKLITSEDNENTSPEQFIVASKEVAASTIQLVAASRVKTSIHSKAQDKLEHCSKDVTDACRSLGNHVMGMIEDDHSTSQQQQPLDFTSEHTLKTAEMEQQVEILKLEQSLSNARKRLGEIRRHAYYNQDDD

In this assay the target is Sla1 ΔPLD (S. cerevisiae). In words: split reporter.
Take B1: the binding result was “binds”.

On to B2, for which the binding result is recorded as “no binding”.

For the molecule B3, the binding entry was “no binding”.

Regarding B4, the binding entry is on record as “no binding”.

Turning to B5, the binding entry is “no binding”.

As for B6, the binding result is listed as “no binding”.

As to B7, the binding result is given as “no binding”.

Regarding B8, the binding result is listed as “binds”.
